The other results are listed elsewhere or left out. Repeats are few or missing, and single values can be far off.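 Imaging used 1,536-well plates; nuclei positive for cleaved PARP by antibody were divided by total DNA-stained nuclei to yield the apoptosis fraction. Doses for screening kept most cells viable, and cell lines differ markedly in resting and induced cleaved-PARP levels.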
Columns and labels:
Experiment in all cases: cleaved PARP positive nuclei fraction relative to DMSO control; melanoma cells; higher = more apoptosis
Conditions in all cases: library dose: low library concentration; 72 h
[1] = tested on: MZ2-MEL
[2] = tested on: MeWo
[3] = tested on: RPMI7951
[4] = tested on: RVH-421
[5] = tested on: SkMel28
[6] = tested on: SkMel2
[7] = tested on: SkMel30
[8] = tested on: SkMel5
[9] = tested on: UACC257
[10] = tested on: UACC62
[11] = tested on: WM115
[12] = tested on: WM1716
[13] = tested on: WM1745
[14] = tested on: WM3526
[15] = tested on: WM3619
[16] = tested on: WM451Lu

Row | Structure (SMILES) | cleaved PARP positive nuclei fraction [1] | cleaved PARP positive nuclei fraction [2] | cleaved PARP positive nuclei fraction [3] | cleaved PARP positive nuclei fraction [4] | cleaved PARP positive nuclei fraction [5] | cleaved PARP positive nuclei fraction [6] | cleaved PARP positive nuclei fraction [7] | cleaved PARP positive nuclei fraction [8] | cleaved PARP positive nuclei fraction [9] | cleaved PARP positive nuclei fraction [10] | cleaved PARP positive nuclei fraction [11] | cleaved PARP positive nuclei fraction [12] | cleaved PARP positive nuclei fraction [13] | cleaved PARP positive nuclei fraction [14] | cleaved PARP positive nuclei fraction [15] | cleaved PARP positive nuclei fraction [16]
1 | Cc1ccc(Nc2nccc(N(C)c3ccc4c(C)n(C)nc4c3)n2)cc1S(N)(=O)=O [Pazopanib] + O=C1NC(=O)/C(=C/c2ccc(-c3ccc(F)cc3O)o2)S1 [AS252424] (first compound 0.4 µM, partner dose 1 µM) | 82.5% | 72.7% | 142% | 248% | 114% | 92.1% | 78% | 173% | 202% | 121% | 147% | 45.1% | 85.9% | 74.5% | 104% | 38.3%
2 | O=c1[nH]nc(Sc2ncc([N+](=O)[O-])s2)n1-c1ccc2c(c1)OCCO2 + CCCCCCCCCCCC1=C(O)C(=O)C=C(O)C1=O [Embelin] (first compound 0.2 µM, partner dose 1.2 µM) | 47.4% | 88.5% | 54% | 135% | 88.1% | 128% | 133% | 87.8% | 197% | 67.5% | 66.4% | 70.3% | 84.8% | 78.8% | 107% | 61%
3 | CCCCCCCCCCCCCCCCCCOP(=O)([O-])OC1CC[N+](C)(C)CC1 [Perifosine] + Cc1cc(N2CCOCC2)cc2[nH]c(-c3c(NC[C@@H](O)c4cccc(Cl)c4)cc[nH]c3=O)nc12 [BMS536924] (first compound 0.4 µM, partner dose 0.2 µM) | 82.1% | 44.5% | 216% | 45% | 408% | 107% | 264% | 36.1% | 72% | 105% | 28.2% | 105% | 141% | 178% | 104% | 157%
4 | Cc1ccc(Nc2nccc(N(C)c3ccc4c(C)n(C)nc4c3)n2)cc1S(N)(=O)=O [Pazopanib] + Cc1ccc(NC(=O)c2cccc(N(C)C)c2)cc1NC(=O)c1ccc(O)cc1 [ZM336372] (first compound 0.4 µM, partner dose 2 µM) | 207% | 51.2% | 109% | 38.3% | 97.7% | 60.3% | 36% | 220% | 109% | 105% | 97.3% | 140% | 114% | 56.1% | 82.8% | 136%
5 | CCCCCCCCCCCCCCCCCCOP(=O)([O-])OC1CC[N+](C)(C)CC1 [Perifosine] + Cc1ccc(NC(=O)c2cccc(N(C)C)c2)cc1NC(=O)c1ccc(O)cc1 [ZM336372] (first compound 0.4 µM, partner dose 2 µM) | 233% | 117% | 66.3% | 48% | 138% | 95.1% | 82.8% | 116% | 110% | 34.4% | 44.8% | 57.1% | 117% | 111% | 111% | 52.9%
6 | Cc1cc(Nc2cc(N3CCN(C)CC3)nc(Sc3ccc(NC(=O)C4CC4)cc3)n2)n[nH]1 [Tozasertib] + CN(C)S(=O)(=O)c1ccc2c(c1)/C(=C/c1cc3c([nH]1)CCCC3)C(=O)N2 [SU6656] (first compound 0.006 µM, partner dose 0.4 µM) | 206% | 36.1% | 97.7% | 26.5% | 32.3% | 48.4% | 217% | 168% | 93.6% | 327% | 119% | 54.7% | 114% | 153% | 89.6% | 118%
7 | O=c1[nH]nc(Sc2ncc([N+](=O)[O-])s2)n1-c1ccc2c(c1)OCCO2 + OCCn1cc(-c2cnc3nnn(Cc4ccc5ncccc5c4)c3n2)cn1 [PF04217903] (first compound 0.2 µM, partner dose 1 µM) | 112% | 103% | 104% | 90.2% | 81.4% | 84.1% | 54.4% | 88.5% | 162% | 200% | 87.9% | 60.3% | 91.9% | 65.5% | 103% | 77.4%
8 | Cc1ccc(Nc2nccc(N(C)c3ccc4c(C)n(C)nc4c3)n2)cc1S(N)(=O)=O [Pazopanib] + CN(NC(=O)CC(=O)NN(C)C(=S)c1ccccc1)C(=S)c1ccccc1 [STA4783] (first compound 0.4 µM, partner dose 0.006 µM) | 27.7% | 85.8% | 108% | 57.2% | 30.5% | 27.3% | 71.8% | 137% | 41.1% | 111% | 112% | 305% | 223% | 58.7% | 144% | 80.9%
9 | O=C(/C=C/c1cccnc1)NCCCCC1CCN(C(=O)c2ccccc2)CC1 + C[C@@H]1CCN(C(=O)CC#N)C[C@@H]1N(C)c1ncnc2[nH]ccc12 [CP690550] (first compound 0.01 µM, partner dose 1 µM) | 478% | 167% | 138% | 95.7% | 45.1% | 230% | 72.3% | 141% | 45.2% | 111% | 104% | 123% | 103% | 70.7% | 127% | 160%

Source: the supplement of paper PMC4604168 (melanoma cell lines)
